Experimental data reported in paper PMC4749977, “Alp7/TACC-Alp14/TOG generates long-lived, fast-growing MTs by an unconventional mechanism” (Scientific Reports, 2016).

Target: T1, Alp14 with an AviTag, in Sf9 lysate on monomeric avidin agarose (S. pombe) (UniProt O94534)
T1 sequence (chain, biotin on the AviTag (BirA ligase co-expressed to ensure biotinylation)): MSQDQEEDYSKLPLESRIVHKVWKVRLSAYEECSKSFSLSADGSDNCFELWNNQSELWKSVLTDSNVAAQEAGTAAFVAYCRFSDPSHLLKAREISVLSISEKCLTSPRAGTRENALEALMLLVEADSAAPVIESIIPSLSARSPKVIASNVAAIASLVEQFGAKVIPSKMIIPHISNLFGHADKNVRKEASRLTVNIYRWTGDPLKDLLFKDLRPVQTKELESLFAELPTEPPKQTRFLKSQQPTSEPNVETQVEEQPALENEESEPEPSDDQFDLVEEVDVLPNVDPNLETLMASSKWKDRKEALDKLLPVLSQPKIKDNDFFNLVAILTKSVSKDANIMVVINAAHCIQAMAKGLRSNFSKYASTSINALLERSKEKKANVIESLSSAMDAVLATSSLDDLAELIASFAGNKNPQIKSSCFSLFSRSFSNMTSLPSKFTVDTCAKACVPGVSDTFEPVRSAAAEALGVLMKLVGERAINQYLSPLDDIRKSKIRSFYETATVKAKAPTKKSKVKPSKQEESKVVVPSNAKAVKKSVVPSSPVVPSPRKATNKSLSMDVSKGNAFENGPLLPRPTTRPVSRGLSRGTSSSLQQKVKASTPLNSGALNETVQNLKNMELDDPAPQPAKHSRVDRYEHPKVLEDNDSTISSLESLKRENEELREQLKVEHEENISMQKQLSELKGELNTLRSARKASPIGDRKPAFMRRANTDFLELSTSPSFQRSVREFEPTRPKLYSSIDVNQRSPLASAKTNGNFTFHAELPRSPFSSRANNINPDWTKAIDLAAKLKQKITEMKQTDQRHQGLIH
Test: pull-down; Avi-tagged Alp14 from Sf9 lysate supernatant held on monomeric avidin agarose; wash with 100 mM NaPO4 pH 7.2, 150 mM NaCl only (without the second wash at 450 mM NaCl)

binding: binds
Substance: insect cell tubulin (complex)

No constants are given. Whether binding was seen depends on the method and setting. In cells and extracts the contact can be indirect. Binding can be weak; no strength is given. Where a sequence is shown, tags or fusion partners need not be part of it.
